From the supplement of paper PMC10849652
The list shows a part of the results.

By UniProt entry, the sequences of proteins in these tests, tags left out. Where a name states a change or a piece, a line headed by the entry shows the natural chain unless it says otherwise.
UniProt Q96A73: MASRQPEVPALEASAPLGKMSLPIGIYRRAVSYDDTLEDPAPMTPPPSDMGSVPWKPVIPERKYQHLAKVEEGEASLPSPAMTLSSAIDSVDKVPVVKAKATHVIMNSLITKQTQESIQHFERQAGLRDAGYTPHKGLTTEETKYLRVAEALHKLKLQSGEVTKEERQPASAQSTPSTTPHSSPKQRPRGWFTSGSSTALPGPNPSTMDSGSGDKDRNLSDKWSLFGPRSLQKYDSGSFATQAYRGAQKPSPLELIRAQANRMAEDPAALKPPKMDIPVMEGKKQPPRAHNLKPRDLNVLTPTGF
UniProt Q99661: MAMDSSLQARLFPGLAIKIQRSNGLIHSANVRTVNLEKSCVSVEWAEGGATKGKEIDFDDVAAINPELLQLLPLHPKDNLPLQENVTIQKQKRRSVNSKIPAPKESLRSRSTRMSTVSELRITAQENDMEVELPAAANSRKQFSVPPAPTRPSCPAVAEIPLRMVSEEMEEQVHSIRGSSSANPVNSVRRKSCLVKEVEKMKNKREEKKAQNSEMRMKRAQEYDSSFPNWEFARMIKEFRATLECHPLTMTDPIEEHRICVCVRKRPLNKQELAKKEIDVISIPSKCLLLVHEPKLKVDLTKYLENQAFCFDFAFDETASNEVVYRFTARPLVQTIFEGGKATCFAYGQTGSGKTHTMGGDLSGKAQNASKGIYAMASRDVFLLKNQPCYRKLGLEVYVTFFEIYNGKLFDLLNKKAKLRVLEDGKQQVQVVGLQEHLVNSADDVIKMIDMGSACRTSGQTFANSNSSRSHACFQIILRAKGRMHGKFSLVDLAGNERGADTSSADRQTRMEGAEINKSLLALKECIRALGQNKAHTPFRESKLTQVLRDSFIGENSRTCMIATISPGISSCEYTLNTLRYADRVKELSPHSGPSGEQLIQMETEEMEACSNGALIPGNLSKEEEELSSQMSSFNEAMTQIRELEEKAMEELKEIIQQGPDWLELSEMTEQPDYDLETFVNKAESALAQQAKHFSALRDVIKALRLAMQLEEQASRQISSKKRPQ
UniProt O14686, whole entry, looked up: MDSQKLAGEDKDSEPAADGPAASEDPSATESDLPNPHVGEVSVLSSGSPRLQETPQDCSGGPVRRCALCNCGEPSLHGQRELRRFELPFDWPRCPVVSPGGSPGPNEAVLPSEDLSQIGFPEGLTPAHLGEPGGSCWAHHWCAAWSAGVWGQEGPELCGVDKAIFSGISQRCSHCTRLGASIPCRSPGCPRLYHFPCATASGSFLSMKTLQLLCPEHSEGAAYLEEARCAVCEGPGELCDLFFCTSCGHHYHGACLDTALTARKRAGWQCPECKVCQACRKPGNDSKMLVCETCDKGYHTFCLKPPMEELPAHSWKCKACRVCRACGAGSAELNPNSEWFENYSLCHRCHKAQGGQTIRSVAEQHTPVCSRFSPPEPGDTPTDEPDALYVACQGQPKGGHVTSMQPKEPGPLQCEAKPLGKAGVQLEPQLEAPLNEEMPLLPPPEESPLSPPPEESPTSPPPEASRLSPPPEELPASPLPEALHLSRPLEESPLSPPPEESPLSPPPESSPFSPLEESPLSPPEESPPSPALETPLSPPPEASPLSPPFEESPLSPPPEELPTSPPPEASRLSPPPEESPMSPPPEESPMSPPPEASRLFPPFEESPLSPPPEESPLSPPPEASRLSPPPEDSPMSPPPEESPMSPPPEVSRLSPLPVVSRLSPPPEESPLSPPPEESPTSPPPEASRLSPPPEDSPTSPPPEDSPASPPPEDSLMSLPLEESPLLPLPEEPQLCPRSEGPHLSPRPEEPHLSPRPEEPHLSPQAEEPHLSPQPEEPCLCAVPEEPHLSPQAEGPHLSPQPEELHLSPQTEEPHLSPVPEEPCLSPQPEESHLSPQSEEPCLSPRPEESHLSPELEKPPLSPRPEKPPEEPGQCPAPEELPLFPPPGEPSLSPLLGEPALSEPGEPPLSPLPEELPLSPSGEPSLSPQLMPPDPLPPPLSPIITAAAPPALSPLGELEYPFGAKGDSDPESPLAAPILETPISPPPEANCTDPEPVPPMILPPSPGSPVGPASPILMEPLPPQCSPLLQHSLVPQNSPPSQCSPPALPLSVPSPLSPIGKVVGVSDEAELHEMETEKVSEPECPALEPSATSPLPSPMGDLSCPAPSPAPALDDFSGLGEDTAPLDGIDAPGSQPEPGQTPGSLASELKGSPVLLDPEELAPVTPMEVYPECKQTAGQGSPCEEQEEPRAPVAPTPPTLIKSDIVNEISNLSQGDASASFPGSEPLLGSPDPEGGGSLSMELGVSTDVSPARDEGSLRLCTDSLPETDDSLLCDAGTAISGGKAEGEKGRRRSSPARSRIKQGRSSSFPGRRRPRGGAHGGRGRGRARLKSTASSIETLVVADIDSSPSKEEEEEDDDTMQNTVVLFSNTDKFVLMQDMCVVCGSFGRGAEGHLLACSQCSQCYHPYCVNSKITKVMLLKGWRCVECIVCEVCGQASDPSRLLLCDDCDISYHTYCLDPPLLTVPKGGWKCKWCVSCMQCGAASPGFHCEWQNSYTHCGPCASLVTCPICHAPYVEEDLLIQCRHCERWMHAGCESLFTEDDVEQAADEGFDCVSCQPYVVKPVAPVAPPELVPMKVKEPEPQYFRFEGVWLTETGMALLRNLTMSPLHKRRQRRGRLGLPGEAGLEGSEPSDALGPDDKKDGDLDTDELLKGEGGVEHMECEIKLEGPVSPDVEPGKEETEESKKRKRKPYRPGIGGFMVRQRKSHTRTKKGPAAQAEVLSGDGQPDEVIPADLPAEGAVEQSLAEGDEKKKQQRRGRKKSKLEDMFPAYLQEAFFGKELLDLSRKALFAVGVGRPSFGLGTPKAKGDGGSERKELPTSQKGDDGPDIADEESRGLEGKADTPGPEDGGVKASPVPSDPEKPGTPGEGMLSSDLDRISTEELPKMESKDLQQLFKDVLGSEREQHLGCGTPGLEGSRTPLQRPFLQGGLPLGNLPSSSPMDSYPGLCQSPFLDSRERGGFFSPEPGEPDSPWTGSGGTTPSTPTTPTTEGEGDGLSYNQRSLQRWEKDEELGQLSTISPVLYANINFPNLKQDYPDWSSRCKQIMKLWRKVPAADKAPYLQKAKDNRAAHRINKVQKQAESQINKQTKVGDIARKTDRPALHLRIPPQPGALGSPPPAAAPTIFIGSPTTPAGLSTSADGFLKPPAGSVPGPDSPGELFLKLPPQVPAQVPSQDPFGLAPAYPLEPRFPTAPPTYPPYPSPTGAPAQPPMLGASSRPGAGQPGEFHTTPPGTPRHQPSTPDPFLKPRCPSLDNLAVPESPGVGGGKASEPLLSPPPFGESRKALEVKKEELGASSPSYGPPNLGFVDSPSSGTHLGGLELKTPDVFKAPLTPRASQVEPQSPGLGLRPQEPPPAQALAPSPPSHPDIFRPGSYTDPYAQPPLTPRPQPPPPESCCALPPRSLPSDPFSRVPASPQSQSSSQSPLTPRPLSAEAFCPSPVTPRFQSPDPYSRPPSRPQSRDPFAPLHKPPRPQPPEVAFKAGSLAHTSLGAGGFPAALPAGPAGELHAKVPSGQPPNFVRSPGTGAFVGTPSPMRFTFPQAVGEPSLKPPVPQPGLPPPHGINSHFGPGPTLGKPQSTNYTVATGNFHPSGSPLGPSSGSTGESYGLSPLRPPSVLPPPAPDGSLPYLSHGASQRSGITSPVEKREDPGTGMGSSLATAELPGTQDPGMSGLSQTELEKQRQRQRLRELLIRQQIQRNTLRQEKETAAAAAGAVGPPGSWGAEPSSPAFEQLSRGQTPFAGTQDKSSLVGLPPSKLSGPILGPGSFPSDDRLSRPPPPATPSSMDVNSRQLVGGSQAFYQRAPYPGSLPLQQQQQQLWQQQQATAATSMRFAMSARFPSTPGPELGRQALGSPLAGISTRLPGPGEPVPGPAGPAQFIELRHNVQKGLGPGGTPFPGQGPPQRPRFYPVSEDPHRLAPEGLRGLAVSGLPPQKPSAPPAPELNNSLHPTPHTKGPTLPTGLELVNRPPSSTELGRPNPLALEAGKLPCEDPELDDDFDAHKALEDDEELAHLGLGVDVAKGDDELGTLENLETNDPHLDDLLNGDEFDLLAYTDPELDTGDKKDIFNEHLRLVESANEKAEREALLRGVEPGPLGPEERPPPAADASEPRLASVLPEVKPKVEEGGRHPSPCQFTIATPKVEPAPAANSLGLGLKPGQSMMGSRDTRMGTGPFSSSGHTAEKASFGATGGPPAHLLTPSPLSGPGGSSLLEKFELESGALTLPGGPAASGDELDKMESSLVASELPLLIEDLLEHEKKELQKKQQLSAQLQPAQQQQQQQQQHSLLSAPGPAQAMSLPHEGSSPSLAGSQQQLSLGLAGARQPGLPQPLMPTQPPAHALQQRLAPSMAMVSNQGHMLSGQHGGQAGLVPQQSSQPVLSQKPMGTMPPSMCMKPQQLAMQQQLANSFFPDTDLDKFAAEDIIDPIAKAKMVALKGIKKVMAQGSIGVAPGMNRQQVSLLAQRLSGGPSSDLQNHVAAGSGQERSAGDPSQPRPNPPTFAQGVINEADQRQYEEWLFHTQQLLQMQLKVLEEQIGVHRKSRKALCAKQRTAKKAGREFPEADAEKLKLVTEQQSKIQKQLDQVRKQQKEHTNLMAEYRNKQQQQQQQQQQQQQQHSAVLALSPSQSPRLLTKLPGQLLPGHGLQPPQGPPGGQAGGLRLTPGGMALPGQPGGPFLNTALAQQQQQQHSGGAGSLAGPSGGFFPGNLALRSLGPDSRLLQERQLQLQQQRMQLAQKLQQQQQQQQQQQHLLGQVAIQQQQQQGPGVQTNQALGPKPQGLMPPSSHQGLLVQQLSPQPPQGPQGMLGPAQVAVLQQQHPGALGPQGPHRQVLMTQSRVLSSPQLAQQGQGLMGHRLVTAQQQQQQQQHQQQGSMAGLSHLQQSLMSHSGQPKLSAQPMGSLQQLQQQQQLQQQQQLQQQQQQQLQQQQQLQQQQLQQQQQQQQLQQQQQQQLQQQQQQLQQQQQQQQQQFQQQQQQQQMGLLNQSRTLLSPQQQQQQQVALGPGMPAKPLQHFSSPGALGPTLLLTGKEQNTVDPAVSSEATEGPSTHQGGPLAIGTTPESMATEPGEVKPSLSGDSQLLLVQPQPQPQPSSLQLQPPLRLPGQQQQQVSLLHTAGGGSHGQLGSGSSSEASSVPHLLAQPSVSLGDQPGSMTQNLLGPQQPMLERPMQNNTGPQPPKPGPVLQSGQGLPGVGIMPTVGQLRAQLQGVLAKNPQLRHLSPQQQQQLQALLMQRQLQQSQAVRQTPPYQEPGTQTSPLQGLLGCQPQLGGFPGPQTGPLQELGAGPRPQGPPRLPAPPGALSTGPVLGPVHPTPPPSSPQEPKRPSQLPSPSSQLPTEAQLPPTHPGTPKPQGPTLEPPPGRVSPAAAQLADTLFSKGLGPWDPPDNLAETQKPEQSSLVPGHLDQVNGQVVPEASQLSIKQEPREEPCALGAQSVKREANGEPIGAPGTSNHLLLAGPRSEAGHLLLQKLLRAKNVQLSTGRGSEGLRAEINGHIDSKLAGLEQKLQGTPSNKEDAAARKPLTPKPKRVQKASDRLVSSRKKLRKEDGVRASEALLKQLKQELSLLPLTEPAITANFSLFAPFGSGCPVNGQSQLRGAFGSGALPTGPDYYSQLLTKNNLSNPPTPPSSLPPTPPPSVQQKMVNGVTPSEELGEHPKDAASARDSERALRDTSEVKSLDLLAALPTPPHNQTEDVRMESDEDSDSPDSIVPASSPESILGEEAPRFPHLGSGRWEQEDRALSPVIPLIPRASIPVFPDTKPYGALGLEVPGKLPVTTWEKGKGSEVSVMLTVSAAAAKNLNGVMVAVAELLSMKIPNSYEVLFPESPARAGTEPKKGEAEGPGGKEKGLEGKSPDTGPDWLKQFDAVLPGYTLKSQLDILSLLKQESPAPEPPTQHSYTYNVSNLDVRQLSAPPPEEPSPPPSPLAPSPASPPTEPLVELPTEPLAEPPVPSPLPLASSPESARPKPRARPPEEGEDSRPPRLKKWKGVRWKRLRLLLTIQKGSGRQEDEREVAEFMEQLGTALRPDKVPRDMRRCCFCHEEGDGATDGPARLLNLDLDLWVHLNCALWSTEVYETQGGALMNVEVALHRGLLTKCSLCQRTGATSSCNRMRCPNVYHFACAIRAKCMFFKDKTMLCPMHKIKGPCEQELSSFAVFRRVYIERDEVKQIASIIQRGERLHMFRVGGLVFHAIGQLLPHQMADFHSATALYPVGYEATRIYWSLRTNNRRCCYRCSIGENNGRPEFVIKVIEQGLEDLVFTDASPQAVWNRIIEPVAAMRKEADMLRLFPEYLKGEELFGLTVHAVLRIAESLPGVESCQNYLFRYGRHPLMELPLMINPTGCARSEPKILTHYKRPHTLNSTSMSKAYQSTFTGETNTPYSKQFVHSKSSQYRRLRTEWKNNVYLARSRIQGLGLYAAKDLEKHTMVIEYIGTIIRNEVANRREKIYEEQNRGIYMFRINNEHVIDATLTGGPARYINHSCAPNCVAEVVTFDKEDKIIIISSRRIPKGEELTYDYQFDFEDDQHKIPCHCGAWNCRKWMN

compound: C1=CC2=C(C=CC(=C2)/C=C\3/C(=O)NC(=NCC4=CC=CS4)S3)N=C1; test: log2 fold change, soluble protein after heating vs DMSO (PISA); higher = thermal stabilisation; K562 cells, 10 uM, 30 min; active = over 0.2 and 3.5 SD of the protein, either way, in both replicates (recomputed)
Procedure, shortened: (§1)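 K562 cells at 2×10^6 cells/mL were exposed to 10 μM compound for 30 min, then aliquots were heated for 3 min across 48°C-58°C, pooled, and extracted in PBS containing 0.5% NP-40 at 4°C. The supernatant after 21,000xg for 90 min was taken as soluble protein and measured by TMTpro 16plex LC-MS/MS with channel sums equalised. Thermal stability is reported relative to control samples, with values from duplicates. Fold changes are given on a log2 scale.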

log2 fold change, inactive:
KIF3A (UniProt Q9Y496) -0.049, KSR1 (UniProt Q8IVT5) 0.162, KIAA1522 isoform 2 (UniProt Q9P206) -0.038, JPT2 isoform 3 (UniProt Q9H910) -0.062, KIAA0319L (UniProt Q8IZA0) 0.032, KDM5D isoform 3 (UniProt Q9BY66) 0.121, JMJD6 isoform 3 (UniProt Q6NYC1) 0.051, JUNB (UniProt P17275) 0.424, KBTBD4 isoform 2 (UniProt Q9NVX7) 0.048, KIF5A (UniProt Q12840) 0.042, KEL (UniProt P23276) -0.005, KIAA1191 (UniProt Q96A73) 0.066, JUND (UniProt P17535) 0.018, KIF2C (UniProt Q99661) 0.01, KDM5C (UniProt P41229) 0.092, KIAA2013 isoform 2 (UniProt Q8IYS2) -0.026, KATNA1 (UniProt O75449) 0.051

compound: C1=CC2=NC=CN=C2C=C1/C=C/3\C(=O)NC(=O)S3; test: as above
Procedure, shortened: as §1

log2 fold change, inactive:
KIAA1143 (UniProt Q96AT1) -0.033, KLC2 (UniProt Q9H0B6) 0.025, KDM8 isoform 3 (UniProt Q8N371) 0.023, KPNA2 (UniProt P52292) 0.066, KMT2D isoform 3 (UniProt O14686) -0.039, KATNB1 (UniProt Q9BVA0) 0.012, KIF13A (UniProt Q9H1H9) -0.009, KHDRBS1 (UniProt Q07666) 0.046, KHSRP (UniProt Q92945) 0.027, KPNB1 (UniProt Q14974) 0.029, KNTC1 (UniProt P50748) 0.034, KIAA0100 (UniProt Q14667) 0.029, KLHL11 (UniProt Q9NVR0) -0.001, JAGN1 (UniProt Q8N5M9) 0.022, KLC1 isoform 6 (UniProt Q07866) 0.051, IVNS1ABP (UniProt Q9Y6Y0) -0.248, KNSTRN (UniProt Q9Y448) 0.032, KIF1B isoform 4 (UniProt O60333) 0.018, KARS1 (UniProt Q15046) 0.05, KDM1A isoform 2 (UniProt O60341) -0.015, KCTD5 (UniProt Q9NXV2) 0.038, KPNA1 (UniProt P52294) 0.009, KBTBD2 (UniProt Q8IY47) -0.034, KIF3A (UniProt Q9Y496) 0.034, KSR1 (UniProt Q8IVT5) 0.058, KIAA1522 isoform 2 (UniProt Q9P206) -0.031, JPT2 isoform 3 (UniProt Q9H910) -0.003, KIAA0319L (UniProt Q8IZA0) 0.023, KDM5D isoform 3 (UniProt Q9BY66) -0.034, JMJD6 isoform 3 (UniProt Q6NYC1) 0.03, JUNB (UniProt P17275) 0.013, KBTBD4 isoform 2 (UniProt Q9NVX7) -0.022, KIF5A (UniProt Q12840) 0.018, KEL (UniProt P23276) 0.147, KIAA1191 (UniProt Q96A73) 0.075, JUND (UniProt P17535) 0.061, KIF2C (UniProt Q99661) -0.004, KDM5C (UniProt P41229) 0.012, KIAA2013 isoform 2 (UniProt Q8IYS2) 0.022, KATNA1 (UniProt O75449) -0.012
